From PubChem BioAssay record AID1851 (NCATS, 2009).

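Recombinant human CYP2D6 and CYP2C9 enzymes turning a pro-luciferin substrate into light, read by luminescence; the incubation time is not stated here.
Percent change in enzyme activity at the series' top concentration, where 0 is the no-effect control and more negative values mean stronger inhibition.
Calls come from the fitted dose curve: inactive means no well-fitted curve with a large enough effect, even if single readings are sizeable.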

Values are in %.
All entries here are filed as inactive.
Only inactive entries are shown; hits are left out here.

compound | setting | activity (%)
CC(=O)NC1=NC(=O)CS1 | Cytochrome P450 2D6 (Homo sapiens); p450-cyp2d6; at 57.1 µM (top of the series) | -9.115
COc1ccc(OCC(=O)NNC(=O)c2ccc(-c3ccccc3)cc2)cc1 | Cytochrome P450 2D6 (Homo sapiens); p450-cyp2d6; at 57.1 µM (top of the series) | 5.795
CO[C@@H]1COC(=O)[C@H](Cc2ccccc2)NC(=O)C/C=C\[C@@H](C)[C@H](OC)COC(=O)[C@@H](C)NC(=O)C/C=C\[C@H]1C | Cytochrome P450 2D6 (Homo sapiens); p450-cyp2d6; at 11.4 µM (top of the series) | -9.558
C[C@H]1CC[C@@]2(NC1)O[C@@H]1C[C@H]3[C@@H]4CC=C5C[C@@H](O)CC[C@]5(C)[C@@H]4CC[C@]3(C)[C@@H]1[C@@H]2C | Cytochrome P450 2C9 (Homo sapiens); p450-cyp2c9; at 25.6 µM (top of the series) | -11.42
CC(C)NC(=O)N1CCC2(CC1)CCN(C(=O)c1cccn1C)CC2 | Cytochrome P450 2D6 (Homo sapiens); p450-cyp2d6; at 57.1 µM (top of the series) | 1.905
NCC1(CC(=O)O)CCCCC1 | Cytochrome P450 2C9 (Homo sapiens); p450-cyp2c9; at 57.1 µM (top of the series) | -15.85
Cc1ccc(-n2ncc3c2ncn2nc(-c4ccco4)nc32)c(C)c1 | Cytochrome P450 2D6 (Homo sapiens); p450-cyp2d6; at 57.1 µM (top of the series) | -17.14
COc1ccc2c(Cl)c(-c3nnco3)sc2c1 | Cytochrome P450 2D6 (Homo sapiens); p450-cyp2d6; at 57.1 µM (top of the series) | -13.08
CCOc1ccc(CNC(=O)C2CCC(=O)N2C2CCCC2)cc1OC (stereo not given) | Cytochrome P450 2D6 (Homo sapiens); p450-cyp2d6; at 57.1 µM (top of the series) | -20.71
COC(=O)C1=CCCN(C)C1 | Cytochrome P450 2C9 (Homo sapiens); p450-cyp2c9; at 57.1 µM (top of the series) | 14.26
COC(=O)C1=CCCN(C)C1 | Cytochrome P450 2C9 (Homo sapiens); p450-cyp2c9; at 25.6 µM (top of the series) | -12.88
CN(c1ccccc1)c1ccc(/C=c2\s/c(=C(/C#N)C(=O)C(C)(C)C)n(Cc3ccco3)c2=O)cc1 | Cytochrome P450 2D6 (Homo sapiens); p450-cyp2d6; at 57.1 µM (top of the series) | 2.696
CN1CCN(C(=O)O[C@@H]2c3nccnc3C(=O)N2c2ccc(Cl)cn2)CC1 | Cytochrome P450 2C9 (Homo sapiens); p450-cyp2c9; at 57.1 µM (top of the series) | -14.15
Cc1ccnc(N)c1 | Cytochrome P450 2D6 (Homo sapiens); p450-cyp2d6; at 57.1 µM (top of the series) | -0.0019
Cc1c(S(=O)(=O)O)ccc(N=Nc2c(O)c(C(=O)O)cc3ccccc23)c1Cl | Cytochrome P450 2D6 (Homo sapiens); p450-cyp2d6; at 11.4 µM (top of the series) | 8.583
NCCc1ccc(S(=O)(=O)F)cc1 | Cytochrome P450 2C9 (Homo sapiens); p450-cyp2c9; at 57.1 µM (top of the series) | -21.81
NC[C@H](O)c1ccc(O)cc1 | Cytochrome P450 2C9 (Homo sapiens); p450-cyp2c9; at 57.1 µM (top of the series) | -5.738
c1ccc(CCCCN2CCC(c3ccccc3)CC2)cc1 | Cytochrome P450 2C9 (Homo sapiens); p450-cyp2c9; at 57.1 µM (top of the series) | -0.5781
NCc1cc(=O)[nH]o1 | Cytochrome P450 2C9 (Homo sapiens); p450-cyp2c9; at 57.1 µM (top of the series) | -11.78
N[C@H](Cc1o[nH]c(=O)c1Cl)C(=O)O | Cytochrome P450 2C9 (Homo sapiens); p450-cyp2c9; at 57.1 µM (top of the series) | -26.45
Cc1ccccc1OCC(=O)Nc1ccc(N2CCN(C(=O)C(C)C)CC2)c(Cl)c1 | Cytochrome P450 2D6 (Homo sapiens); p450-cyp2d6; at 57.1 µM (top of the series) | -37.7
CC(C)NP(=O)(NC(C)C)OP(=O)(NC(C)C)NC(C)C | Cytochrome P450 2C9 (Homo sapiens); p450-cyp2c9; at 57.1 µM (top of the series) | -15.52
C[C@H](Br)C(=O)N[C@H](CO)C(=O)O | Cytochrome P450 2C9 (Homo sapiens); p450-cyp2c9; at 11.4 µM (top of the series) | 8.22
CCc1ccc(N2CC(C(=O)NC3=NCCS3)CC2=O)cc1 (stereo not given) | Cytochrome P450 2D6 (Homo sapiens); p450-cyp2d6; at 57.1 µM (top of the series) | -18.16
C[C@H](N)[C@H](O)c1ccc(O)c(O)c1 | Cytochrome P450 2C9 (Homo sapiens); p450-cyp2c9; at 25.6 µM (top of the series) | -15.93

Once more, the final 3:

compound,setting,activity (%)
C[C@H](Br)C(=O)N[C@H](CO)C(=O)O,Cytochrome P450 2C9 (Homo sapiens); p450-cyp2c9; at 11.4 µM (top of the series),8.22
CCc1ccc(N2CC(C(=O)NC3=NCCS3)CC2=O)cc1 (stereo not given),Cytochrome P450 2D6 (Homo sapiens); p450-cyp2d6; at 57.1 µM (top of the series),-18.16
C[C@H](N)[C@H](O)c1ccc(O)c(O)c1,Cytochrome P450 2C9 (Homo sapiens); p450-cyp2c9; at 25.6 µM (top of the series),-15.93